The labels stand for the following.
T1: CD123 (target of Example 19) (Homo sapiens (Human)) (UniProt P26951)
T1 sequence: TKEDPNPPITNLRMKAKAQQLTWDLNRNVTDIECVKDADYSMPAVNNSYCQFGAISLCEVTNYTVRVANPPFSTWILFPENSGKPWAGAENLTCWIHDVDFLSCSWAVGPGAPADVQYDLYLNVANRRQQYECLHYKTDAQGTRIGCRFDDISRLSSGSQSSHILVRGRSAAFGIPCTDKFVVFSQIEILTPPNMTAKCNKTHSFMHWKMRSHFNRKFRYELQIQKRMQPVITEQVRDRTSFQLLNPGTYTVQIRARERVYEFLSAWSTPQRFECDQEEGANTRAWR

The chains behind the UniProt entries cited, without tags or fusion partners. Where a name states a change or a piece, a line headed by the entry shows the natural chain unless it says otherwise. A line that says so, or that is headed by a name, gives the form on record, which may keep a tag or linker. Residues count along the entry.
UniProt P20273, residues 20-687: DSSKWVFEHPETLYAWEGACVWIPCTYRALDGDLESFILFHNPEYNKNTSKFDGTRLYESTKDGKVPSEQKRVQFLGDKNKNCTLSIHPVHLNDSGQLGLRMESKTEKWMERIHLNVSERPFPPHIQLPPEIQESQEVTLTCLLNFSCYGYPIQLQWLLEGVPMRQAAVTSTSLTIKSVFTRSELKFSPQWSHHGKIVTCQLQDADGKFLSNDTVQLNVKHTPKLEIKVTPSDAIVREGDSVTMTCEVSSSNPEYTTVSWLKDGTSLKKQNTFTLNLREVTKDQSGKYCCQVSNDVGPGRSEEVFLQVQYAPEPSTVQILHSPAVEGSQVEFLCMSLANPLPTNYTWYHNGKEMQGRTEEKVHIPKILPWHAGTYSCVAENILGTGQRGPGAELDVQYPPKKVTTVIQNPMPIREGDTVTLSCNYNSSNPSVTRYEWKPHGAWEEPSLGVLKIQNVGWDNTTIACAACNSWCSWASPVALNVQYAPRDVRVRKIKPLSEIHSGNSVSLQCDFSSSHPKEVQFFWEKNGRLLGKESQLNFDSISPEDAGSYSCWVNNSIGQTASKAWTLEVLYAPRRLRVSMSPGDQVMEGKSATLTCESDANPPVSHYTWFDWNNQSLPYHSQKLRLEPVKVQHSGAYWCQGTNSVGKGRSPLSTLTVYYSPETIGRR
UniProt O14763, residues 56-182: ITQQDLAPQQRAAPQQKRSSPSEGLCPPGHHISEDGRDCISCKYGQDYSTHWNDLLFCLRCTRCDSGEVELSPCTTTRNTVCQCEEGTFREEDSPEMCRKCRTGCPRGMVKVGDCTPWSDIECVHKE
cynomolgus PD-L1 (cynomolgus (Macaca fascicularis)) (G7PSE7, form named): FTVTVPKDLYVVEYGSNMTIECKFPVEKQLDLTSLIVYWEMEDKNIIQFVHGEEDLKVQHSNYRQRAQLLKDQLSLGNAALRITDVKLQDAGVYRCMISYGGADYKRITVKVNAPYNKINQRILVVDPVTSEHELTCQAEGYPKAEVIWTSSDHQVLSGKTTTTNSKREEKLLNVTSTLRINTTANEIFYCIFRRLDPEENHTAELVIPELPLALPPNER

B1: SEQ ID NO 101 (designed binder)
chain: MGSWTEFDRRLDAIWDRLFALGGSEAELAAFEKEIAAFESELQAYKGKGNPEVEWLREEAADIRDYLQAYRHN
B2: SEQ ID NO 102 (designed binder)
chain: MGSWTEFDRRLDAIWDRLFALGGSEAELAAFEKEIAAFESELQAYKGKGNPEVEWLREEAADIRDYLQAYRHN
B3: SEQ ID NO 114 (designed binder)
chain: MGSWTEFDRRLDAIWDRLFALGGSEAELAAFEKEIAAFESELQAYKGKGNPEVEWLREEAADIRDYLQAYRHN
B4: SEQ ID NO 176 (designed binder)
chain: MGSWTEFSYRLGAIQSRLHALGGSEAELAAFEKEIAAFESELQAYKGKGNPEVEHLRYNAAKIRHFLQAYRHN
B5: SEQ ID NO 170 (designed binder)
chain: MGSWSEFYDRLHAIHHRLYALGGSEAELAAFEKEIAAFESELQAYKGKGNPEVEALRDTAAFIRTRLQAYRHN
B6: SEQ ID NO 173 (designed binder)
chain: MGSWYEFADRLHAIHQRLYALGGSEAELAAFEKEIAAFESELQAYKGKGNPEVEALRMTAAFIRSRLQAYRHN
B7: SEQ ID NO 175 (designed binder)
chain: MGSWNEFADRLHAIHQRLYALGGSEAELAAFEKEIAAFESELQAYKGKGNPEVESLRMTAAFIRSRLQAYRHN
B8: SEQ ID NO 174 (designed binder)
chain: MGSWNEFYNRLHAIHQRLYALGGSEAELAAFEKEIAAFESELQAYKGKGNPEVESLRQTAAYIRDRLQAYRHN
B9: SEQ ID NO 171 (designed binder)
chain: MGSWKEFHFRLHAIEHRLIALGGSEAELAAFEKEIAAFESELQAYKGKGNPEVEFLRAKAANIRTHLQAYRHN
B10: SEQ ID NO 172 (designed binder)
chain: MGSWFEFHGRLHAIYGRLSALGGSEAELAAFEKEIAAFESELQAYKGKGNPEVEHLRAHAAHIRDHLQAYRHN
B11: SEQ ID NO 178 (designed binder)
chain: MGSWVEFFDRLKAIHDRLEALGGSEAELAHFEKLIAHFEHRLQNYKGKGNPEVEALEKEADAILYELAAYRHN
B12: SEQ ID NO 180 (designed binder)
chain: MGSWVEFHIRLHAIQYRLYALGGSEAELAAFEKEIAAFESELQAYKGKGNPEVEELRHWAAFIRLQLQAYRHN
B13: SEQ ID NO 177 (designed binder)
chain: MGSWQEFTTRLEAIYHRLRALGGSEAELANFEGFIAEFEGNLQMYKGKGNPEVEALVHEAYAIMEELHAYRHN
B14: SEQ ID NO 179 (designed binder)
chain: MGSWYYFKHHLAWIKMELEALGGSEAELAHFESSIASFERDLQQYKGKGNPEVEALRKEAAAIRDELQAYRHN
B15: CAR comprising the DBDpp pb04 (protein, not shown: small tags and cut ends)
chain: MGSWYEFTVRLEAIHERLKALGGSEAELAAFEKEIAAFESELQAYKGKGNPEVEILRDDAAFIRRFLQAYRHN

These are yes or no findings as the source states them, for the method shown. Some results given as binding are weak or reduced against the parent protein; the word gives no strength.

One assay deals with T1, CD123 (target of Example 19) (Homo sapiens (Human)). Briefly: library selection; assay not described.
Consider B1, for which the binding entry is “binds”.

On to B2, for which the binding entry is given as “binds”. The same measure, in the same setting: to B3 belongs “binds”.

For a further assay, the target named is CD22 (UniProt P20273). The assay is described as follows: library selection; assay not described.
On to B4, for which the binding result is reported as “binds”. The same measure, in the same setting: to B5 belongs “binds”.

For the molecule B6, the binding entry is reported as “binds”. Still for that read-out and setting: to B7 belongs “binds”; to B8, “binds”; to B9, “binds”. The same measure, in the same setting: to B10 belongs “binds”.

The target of a further assay is DR5 (target of Example 24) (UniProt O14763). Briefly: library selection; assay not described.
For the molecule B11, the binding entry is “binds”. The same measure, in the same setting: for B12 the value was “binds”. As for B13, the binding result is given as “binds”. On the same count and under the same terms, for B14 the value was “binds”.

A further assay addresses cynomolgus PD-L1 (cynomolgus (Macaca fascicularis)) (UniProt G7PSE7). Briefly: flow cytometry, CAR T cells. A general note: Flow cytometry measures light scatter and fluorescence of single cells or particles in a stream.
In the case of B15, the binding result was “binds”.

The target is the same in a further assay. The assay is described as follows: flow cytometry, human T cells with the pb04 CAR incubated with soluble cynomolgus PDL1-Fc, detection with anti-Fc.
Turning to B15, the binding entry is on record as “binds”.

The values are drawn from US20180251563A1.
